Measured values from patent EP0173944A2, “Enhanced inhibition of yeast cell growth” (MILES INC., priority 1984, dated 1986).
At least one compound was matched to its structure with a doubt left.

System: Saccharomyces cerevisiae strain S288C
Assay: Filter disc zone-of-inhibition test of yeast growth with or without PBN in the agar overlay
Format: cell-based
Details: glycerol or glucose as the carbon source
Method: A convenient method for ascertaining the inhibition of growth of yeast cells is as follows. A sample of yeast cells (about 10 7 cells) from a viable overnight culture is added to a molten agar-containing growth medium to which has been added the desired amount of PBN. The resulting suspension is mixed rapidly and then poured onto an agar plate containing a suitable growth medium. The molten agar is allowed to solidify and sterile filter discs are placed on the surface. The solution of antibiotics to be tested are then pipetted onto the discs (50 microliters per disc). The plates are incubated and "read" for antibiotic sensitivity as determined by the zone of inhibition around the disc.
Saccharomyces cerevisiae strain S288C was grown for 16 hours at 30°C in a liquid medium consisting of 1% (w/v) yeast extract, 2% (w/v) peptone, and 2% (w/v) glucose (YPD medium). One drop of cell suspension from this culture (about 5 x 10^6 to about 1 X 10 ^7 cells) was added to each of 2 tubes containing 3 ml of 0.7% agar, 1% yeast extract, 2% peptone, 2% glycerol (or alternatively 2% glucose as a carbon source) and 0.25 ml of 5 M NaCl maintained at 45-50°C to prevent the agar from solidifying. One tube contained., in addition to the above, 0.5 ml of PBN solution (4.8 A260 units) prepared as described above. The other tube served as a control. […]

In the case of `CO[C@H]1/C=C/O[C@@]2(C)Oc3c(C)c(O)c4c(O)c(c(/C=N/N5CCN(C)CC5)c(O)c4c3C2=O)NC(=O)/C(C)=C\C=C\[C@H](C)[C@H](O)[C@@H](C)[C@@H](O)[C@@H](C)[C@H](OC(C)=O)[C@@H]1C` [Rifampicin], the “inhibition of yeast growth in relation to the carbon source” value is reported as “exhibited inhibition of yeast growth regardless of the carbon source”.
